Reference: PMC3355152
No constants are given. Whether binding was seen depends on the method and setting. Some results given as binding are weak or reduced against the parent protein; the word gives no strength.

By UniProt entry, the sequences of proteins in these tests, tags left out.
UniProt O42978: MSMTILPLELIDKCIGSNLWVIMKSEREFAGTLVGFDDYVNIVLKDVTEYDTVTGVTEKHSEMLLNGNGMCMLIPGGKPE

How the values were obtained:
[1] = target: SpLsm5 (Lsm5 from S. pombe) (S. pombe) (UniProt O42978); assay: crystal structure; SeMet-SpLsm5/6/7; hanging drop, 15°C, 0.1 M Mes pH 6.5, 0.1 M MgCl2, 32% PEG 400; 2.3 Å, SAD; both purified
[2] = target: T1, SpLsm6 (Lsm6 from S. pombe) (S. pombe) (UniProt Q9UUI1); assay: as above
T1 sequence (chain, SeMet-substituted in the crystal): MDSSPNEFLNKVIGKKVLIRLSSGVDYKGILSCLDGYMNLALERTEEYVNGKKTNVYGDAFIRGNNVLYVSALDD

B1: SpLsm6 (Lsm6 from S. pombe) (protein, UniProt Q9UUI1 1-75)
chain: MDSSPNEFLNKVIGKKVLIRLSSGVDYKGILSCLDGYMNLALERTEEYVNGKKTNVYGDAFIRGNNVLYVSALDD
modifications: SeMet-substituted in the crystal
binding [1]: binds

B2: SpLsm7 (Lsm7 from S. pombe) (protein, UniProt O74499 1-113)
chain: MSSLQKRPGPGNSSQPTERPRKESILDLSRYQDQRIQATFTGGRQITGILKGFDQLMNLVLDDVEEQLRNPEDGKLTGAIRKLGLVVVRGTTLVLIAPMDGSEEIPNPFVQAE
modifications: SeMet-substituted in the crystal
binding [1]: binds | binding [2]: binds
